From patent US8680149B2, “1-amino-alkylcyclohexane derivatives for the treatment of mast cell mediated diseases” (Merz Pharma GmbH & Co. KGaA, priority 2008, dated 2014)
For at least one compound, name, drawing or mass did not settle the structure.

Tested on: human mast cell line HMC-1
Test: Mast cell degranulation in vitro: histamine concentration in culture medium by sandwich-ELISA
Format: cell-based
Description: The human mast cell line HMC-1 is obtained from J. H. Butterfield (Minnesota, USA) and cultured under standard conditions in RPMI Medium 1640 (GIBCO, Karlsruhe, Germany) at 37° C. For functional assays, the calcium concentration of the medium is adjusted to 1 mM.
The Mast cell degranulation is monitored by determination of histamine concentration in the culture medium using a sandwich-ELISA from IBL (Hamburg, Germany).Histamine concentration is determined in untreated cells, medium without cells, HMC-1 cells treated with calcimycin, (a calcium ionophore,used as positive control). Additional controls to check reagibilty of the cells are LPS (lipopolysaccharide) and PMA (phorbol 12-myristate 13-acetate). Histamine concentration is determined 10 minutes after addition of the respective substances. Nicotine and choline are used as stimulus for nAChR, muscarine as stimulus for mAChR, and a combination of acetylcholine and eserine (an acetylcholinesterase inhibitor) is used as pancholinergic stimulus. Neramexane is tested at concentrations ranging from 10E-6M to 10E-16M and is added to the culture medium 5 minutes prior to the respective cholinergic stimulus. All experiments are performed twice in quadruplicate.
Statistical analysis is performed using the Wilcoxon sum-of-ranks test (available on www.statpages.net).
In order to determine the sensitivity of mast cells towards cholinergic signals, the HMC-1 cell line cultured under standard conditions with either low or high calcium concentrations is used.

## CC(=O)OCC[N+](C)(C)C [ACh, acetylcholine]
HMC-1 cells, calcium 1 mM
  concentration sufficient to induce complete degranulation: Nanomolar concentrations
HMC-1 cells, calcium concentration elevated to 1 mM, histamine 10 minutes after addition
  induction of mast cell degranulation (histamine concentration in culture supernatant): dose-dependently produce mast cell degranulation
Low calcium concentration
  responsiveness of HMC-1 cells (degranulation) at low calcium: unresponsive
